From paper PMC7791037 come the findings set out here.

Protein sequences, listed by entry. Tags and fused reporters are not part of them.
UniProt P78560: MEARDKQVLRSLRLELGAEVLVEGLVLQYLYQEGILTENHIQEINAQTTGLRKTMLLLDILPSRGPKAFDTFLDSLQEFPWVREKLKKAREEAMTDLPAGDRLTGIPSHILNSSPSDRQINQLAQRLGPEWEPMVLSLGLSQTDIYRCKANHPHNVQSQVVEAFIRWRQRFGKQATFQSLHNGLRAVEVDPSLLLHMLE

Test in all cases: co-IP; FLAG-tagged PIDD1 variants overexpressed in HEK293T cells, lysed after 24 h, precipitated with FLAG-M2 agarose beads; western blot for FLAG-PIDD1 and endogenous CRADD in IP sample and flow through
The target in assay [1] is T1, C-terminally FLAG-tagged PIDD1 G876S (human) (UniProt Q9HB75).
T1 sequence: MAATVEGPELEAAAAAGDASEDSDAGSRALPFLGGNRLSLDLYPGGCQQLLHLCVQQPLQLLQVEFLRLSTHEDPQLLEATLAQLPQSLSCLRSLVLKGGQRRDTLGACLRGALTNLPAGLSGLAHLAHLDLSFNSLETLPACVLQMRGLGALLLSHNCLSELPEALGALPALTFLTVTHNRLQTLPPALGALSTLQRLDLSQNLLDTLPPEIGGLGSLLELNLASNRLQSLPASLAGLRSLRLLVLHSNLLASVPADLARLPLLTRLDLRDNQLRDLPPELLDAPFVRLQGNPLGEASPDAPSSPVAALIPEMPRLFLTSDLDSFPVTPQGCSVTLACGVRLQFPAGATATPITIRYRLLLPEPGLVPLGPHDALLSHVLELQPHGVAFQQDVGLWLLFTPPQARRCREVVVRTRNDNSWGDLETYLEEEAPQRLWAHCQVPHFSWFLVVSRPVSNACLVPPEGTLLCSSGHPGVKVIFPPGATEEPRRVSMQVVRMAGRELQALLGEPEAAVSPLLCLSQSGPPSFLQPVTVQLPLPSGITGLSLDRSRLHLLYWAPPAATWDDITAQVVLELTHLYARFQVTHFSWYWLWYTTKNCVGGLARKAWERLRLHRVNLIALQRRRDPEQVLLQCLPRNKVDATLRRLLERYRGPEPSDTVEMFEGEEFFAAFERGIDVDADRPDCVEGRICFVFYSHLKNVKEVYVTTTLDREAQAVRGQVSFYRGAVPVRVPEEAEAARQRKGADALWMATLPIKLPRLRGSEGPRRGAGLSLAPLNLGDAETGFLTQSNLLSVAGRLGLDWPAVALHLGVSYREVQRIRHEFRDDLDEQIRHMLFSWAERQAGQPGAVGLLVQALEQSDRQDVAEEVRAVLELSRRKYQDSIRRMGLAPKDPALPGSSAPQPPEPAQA

Assay [2] deals with T2, C-terminally FLAG-tagged PIDD1 Q863* (human) (UniProt Q9HB75).
T2 sequence: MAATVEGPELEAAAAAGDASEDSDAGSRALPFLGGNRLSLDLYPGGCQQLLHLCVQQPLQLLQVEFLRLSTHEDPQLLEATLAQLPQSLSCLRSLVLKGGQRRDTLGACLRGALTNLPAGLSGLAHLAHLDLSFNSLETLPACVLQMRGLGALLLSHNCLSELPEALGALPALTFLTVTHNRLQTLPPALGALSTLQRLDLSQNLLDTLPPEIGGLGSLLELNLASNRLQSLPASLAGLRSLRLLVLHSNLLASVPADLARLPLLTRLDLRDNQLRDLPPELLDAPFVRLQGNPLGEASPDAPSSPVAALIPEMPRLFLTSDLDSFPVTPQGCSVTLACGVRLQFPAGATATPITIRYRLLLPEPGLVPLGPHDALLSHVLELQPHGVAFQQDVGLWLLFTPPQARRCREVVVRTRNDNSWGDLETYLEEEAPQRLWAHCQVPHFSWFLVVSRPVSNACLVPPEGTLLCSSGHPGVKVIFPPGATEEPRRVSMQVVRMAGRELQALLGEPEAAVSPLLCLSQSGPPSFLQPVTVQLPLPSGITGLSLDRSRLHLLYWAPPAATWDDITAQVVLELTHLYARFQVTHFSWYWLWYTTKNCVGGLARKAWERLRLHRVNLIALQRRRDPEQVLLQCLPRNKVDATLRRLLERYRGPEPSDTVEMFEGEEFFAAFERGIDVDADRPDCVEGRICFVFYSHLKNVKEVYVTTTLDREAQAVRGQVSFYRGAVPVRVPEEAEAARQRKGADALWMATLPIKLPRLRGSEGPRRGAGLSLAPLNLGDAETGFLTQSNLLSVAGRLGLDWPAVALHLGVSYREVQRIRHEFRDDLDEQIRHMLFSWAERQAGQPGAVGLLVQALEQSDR

Assay [3] addresses T3, C-terminally FLAG-tagged WT PIDD1 (p53-Induced Death Domain protein 1) (human) (UniProt Q9HB75).
T3 sequence: T1 sequence with S876G

Where a chain is given by its changes, count along the chain named. Results are given in words; binding and its absence hold for the method and conditions named. In cells and extracts the contact can be indirect. Some results given as binding are weak or reduced against the parent protein; the word gives no strength. Where a sequence is shown, tags or fusion partners need not be part of it.

On to “endogenous CRADD (caspase and RIP adaptor with death domain) (from UniProt P78560 1-199)”, for which the binding entry in assay [1] was “binds”; in assay [2], “no binding”; in assay [3], “binds”.
